{"source": "PubChem BioAssay AID330", "about": "(DTP/NCI, 2004)", "test_system": "P388 leukemia ip, CD2F1 mice, survival T/C", "test": "NCI In Vivo Anticancer Drug Screen. Data for tumor model P388 Leukemia (intraperitoneal) in CD2F1 (CDF1) mice", "conditions": "T/C endpoint: median survival time, higher T/C = longer survival", "key": {"[1]": {"conditions": "dose: 50.0 mg/kg/injection, schedule: Q01DX005 (ip), vehicle: saline with Tween-80"}, "[2]": {"conditions": "dose: 100.0 mg/kg/injection, schedule: Q01DX005 (ip), vehicle: saline with Tween-80"}, "[3]": {"conditions": "dose: 200.0 mg/kg/injection, schedule: Q01DX005 (ip), vehicle: saline with Tween-80"}}, "note": "The list is a part of this screen's results and no random one: it gathers tests that were run many times, whatever their T/C, doses with no T/C, and many T/C values between a quarter and a half above the control. Other doses and runs of a compound stand elsewhere. T/C gives the treated animals as a percentage of the vehicle group. Some doses have a count of surviving animals in place of a T/C: the source files T/C as zero there, which appears to mark a toxic dose or a test without result, not a measured value. Some doses without a T/C left all or most animals alive at the check, yet need not have been tolerated: the source hardly ever lists a survival T/C far under the control, and the zero likely stands for such cases as well. Counts of survivors are from the toxicity check (mostly the fifth day) where no day follows; animals may have died later. Schedules are NCI's codes, taken here to give the interval after Q, in days (D) or hours (H), and the number of doses after X. Some entries were tested several times; their values stand side by side, smallest first. For survival time, this PubChem deposit counts one and a half times the control or more as active, and values a quarter to a half above the control carry no call in these data; other NCI protocols may use other cut-offs. Some T/C values carry the count of animals alive at the toxicity check (mostly the fifth day); where none is given, no animal had died by that day.", "data": [{"smiles": "COc1cc(C2c3cc4c(cc3C(OC3CCCCO3)C3COC(=O)C23)OCO4)cc(OC)c1OC", "note": "(centres undefined)", "values": [{"measurement": "T/C", "setting": "dose: 6.25 mg/kg/injection, schedule: Q01DX005 (ip), vehicle: Klucel (hydroxypropylcellulose) (HPC)", "result": "129 and 131 % of control"}, {"measurement": "T/C", "setting": "dose: 12.5 mg/kg/injection, schedule: Q01DX005 (ip), vehicle: Klucel (hydroxypropylcellulose) (HPC)", "result": "133 and 149 % of control"}, {"measurement": "survivor count", "setting": "dose: 25.0 mg/kg/injection, schedule: Q01DX005 (ip), vehicle: Klucel (hydroxypropylcellulose) (HPC)", "result": "1 of 6 and 4 of 6"}, {"measurement": "survivor count", "setting": "dose: 50.0 mg/kg/injection, schedule: Q01DX005 (ip), vehicle: Klucel (hydroxypropylcellulose) (HPC)", "result": "0 of 6"}, {"measurement": "survivor count", "setting": "dose: 100.0 mg/kg/injection, schedule: Q01DX005 (ip), vehicle: Klucel (hydroxypropylcellulose) (HPC)", "result": "0 of 6"}, {"measurement": "survivor count", "setting": "dose: 200.0 mg/kg/injection, schedule: Q01DX005 (ip), vehicle: Klucel (hydroxypropylcellulose) (HPC)", "result": "0 of 6"}]}, {"smiles": "N#COc1ccc(-c2ccccc2)cc1", "values": [{"measurement": "survivor count", "setting": "dose: 120.0 mg/kg/injection, schedule: Q01DX005 (ip), vehicle: saline with Tween-80", "result": "6 of 6"}]}, {"smiles": "c1ccc2c(NCCCNCCCNc3c4ccccc4nc4ccccc34)c3ccccc3nc2c1", "values": [{"measurement": "T/C", "setting": "dose: 2.5 mg/kg/injection, schedule: Q01DX009 (ip), vehicle: other", "result": "127 % of control [4 of 6 alive]"}, {"measurement": "survivor count", "setting": "dose: 5.0 mg/kg/injection, schedule: Q01DX009 (ip), vehicle: other", "result": "0 of 6"}, {"measurement": "survivor count", "setting": "dose: 10.0 mg/kg/injection, schedule: Q01DX009 (ip), vehicle: other", "result": "0 of 6"}, {"measurement": "survivor count", "setting": "dose: 20.0 mg/kg/injection, schedule: Q01DX009 (ip), vehicle: other", "result": "0 of 6"}]}, {"smiles": "CN=C(NC)c1ccc(NC(=O)c2ccc(C(=O)Nc3ccc(C(=NC)NC)c(C)c3)cc2)cc1C", "values": [{"measurement": "T/C", "setting": "dose: 12.5 mg/kg/injection, schedule: Q01DX005 (ip), vehicle: saline with Tween-80", "result": "129 % of control"}, {"measurement": "survivor count", "setting": "[1]", "result": "4 of 6"}, {"measurement": "survivor count", "setting": "[2]", "result": "0 of 6"}, {"measurement": "survivor count", "setting": "[3]", "result": "0 of 6"}]}, {"smiles": "CN(C)CCC(=O)C(=C/C=C/c1ccccc1)C(=O)CCN(C)C", "values": [{"measurement": "T/C", "setting": "[1]", "result": "132 % of control"}, {"measurement": "T/C", "setting": "[2]", "result": "132 % of control"}, {"measurement": "survivor count", "setting": "[3]", "result": "0 of 5"}]}, {"smiles": "Nc1ncnc(Nc2ccc(C(F)(F)F)cc2)n1", "values": [{"measurement": "survivor count", "setting": "dose: 50.0 mg/kg/injection, schedule: Q01DX009 (ip), vehicle: Klucel (hydroxypropylcellulose) (HPC)", "result": "6 of 6"}, {"measurement": "survivor count", "setting": "dose: 200.0 mg/kg/injection, schedule: Q01DX009 (ip), vehicle: Klucel (hydroxypropylcellulose) (HPC)", "result": "5 of 6"}]}, {"smiles": "C=CCC(CCC)(C(=O)Nc1ccc2nc(C)cc(N)c2c1)C(=O)Nc1ccc2nc(C)cc(N)c2c1", "values": [{"measurement": "survivor count", "setting": "[3]", "result": "0 of 5"}]}, {"smiles": "O=P(c1ccccc1)(c1ccccc1)c1ccccc1.[CH3][Sn]([Cl])([Cl])[c]1ccccc1", "values": [{"measurement": "T/C", "setting": "dose: 100.0 mg/kg/injection, schedule: Q04DX003 (ip), vehicle: saline", "result": "130 % of control [5 of 6 alive]"}, {"measurement": "survivor count", "setting": "dose: 200.0 mg/kg/injection, schedule: Q04DX003 (ip), vehicle: saline", "result": "0 of 6"}, {"measurement": "survivor count", "setting": "dose: 400.0 mg/kg/injection, schedule: Q04DX003 (ip), vehicle: saline", "result": "0 of 6"}]}, {"smiles": "CN(C)c1ccc2c(N(C)C)cc(N(C)C)[n+](C)c2c1", "values": [{"measurement": "survivor count", "setting": "dose: 3.12 mg/kg/injection, schedule: Q01DX009 (ip), vehicle: distilled water + Tween-80 + alcohol", "result": "0 of 6"}, {"measurement": "survivor count", "setting": "dose: 6.25 mg/kg/injection, schedule: Q01DX009 (ip), vehicle: other", "result": "2 of 6"}, {"measurement": "survivor count", "setting": "dose: 12.5 mg/kg/injection, schedule: Q01DX009 (ip), vehicle: other", "result": "0 of 6"}, {"measurement": "survivor count", "setting": "dose: 25.0 mg/kg/injection, schedule: Q01DX009 (ip), vehicle: other", "result": "0 of 6"}, {"measurement": "survivor count", "setting": "dose: 50.0 mg/kg/injection, schedule: Q01DX009 (ip), vehicle: other", "result": "0 of 6"}, {"measurement": "survivor count", "setting": "dose: 100.0 mg/kg/injection, schedule: Q01DX009 (ip), vehicle: other", "result": "0 of 6"}, {"measurement": "survivor count", "setting": "dose: 200.0 mg/kg/injection, schedule: Q01DX009 (ip), vehicle: other", "result": "0 of 6"}]}, {"smiles": "CS(=O)(=O)OCC(O)C(O)COS(C)(=O)=O", "note": "(centres undefined)", "values": [{"measurement": "survivor count", "setting": "dose: 100.0 mg/kg/injection, schedule: Q01DX009 (ip), vehicle: saline", "result": "10 of 10"}, {"measurement": "survivor count", "setting": "dose: 200.0 mg/kg/injection, schedule: Q01DX009 (ip), vehicle: saline", "result": "10 of 10"}, {"measurement": "T/C", "setting": "dose: 800.0 mg/kg/injection, schedule: Q01DX009 (ip), vehicle: saline", "result": "145 % of control"}]}]}
